Experimental data reported in PMC4198130.
Results are given in words; binding and its absence hold for the method and conditions named. Binding seen in cells or lysates may run through a third protein.

Protein sequences, listed by entry. Tags and fused reporters are not part of them. Residues count along the entry.
UniProt Q12929, residues 531-590: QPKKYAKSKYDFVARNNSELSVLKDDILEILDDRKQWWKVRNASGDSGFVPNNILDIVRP

Molecular target: GST fusion of the SH3 domain of EPS8 (Panomics) (human) (UniProt Q12929)
Test: pull-down; GST fusions of SH3 or WW domains on glutathione sepharose beads, incubated with detergent-solubilized (2% TX-100) rat brain extract, RT 60 min; bound VGLUT1 by immunoblot, band intensity normalised to lysate; only the target purified

- binding: no binding
B1: VGLUT1 from rat brain extract (protein, UniProt Q62634 1-560)
chain: MEFRQEEFRKLAGRALGRLHRLLEKRQEGAETLELSADGRPVTTHTRDPPVVDCTCFGLPRRYIIAIMSGLGFCISFGIRCNLGVAIVSMVNNSTTHRGGHVVVQKAQFNWDPETVGLIHGSFFWGYIVTQIPGGFICQKFAANRVFGFAIVATSTLNMLIPSAARVHYGCVIFVRILQGLVEGVTYPACHGIWSKWAPPLERSRLATTAFCGSYAGAVVAMPLAGVLVQYSGWSSVFYVYGSFGIFWYLFWLLVSYESPALHPSISEEERKYIEDAIGESAKLMNPVTKFNTPWRRFFTSMPVYAIIVANFCRSWTFYLLLISQPAYFEEVFGFEISKVGLVSALPHLVMTIIVPIGGQIADFLRSRHIMSTTNVRKLMNCGGFGMEATLLLVVGYSHSKGVAISFLVLAVGFSGFAISGFNVNHLDIAPRYASILMGISNGVGTLSGMVCPIIVGAMTKHKTREEWQYVFLIASLVHYGGVIFYGVFASGEKQPWAEPEEMSEEKCGFVGHDQLAGSDESEMEDEVEPPGAPPAPPPSYGATHSTVQPPRPPPPVRDY
